# PubChem BioAssay AID623959 (National Center for Advancing Translational Sciences (NCATS), 2012)
# The chains behind the UniProt entries cited, without tags or fusion partners.
# UniProt Q8NER1, whole entry, looked up: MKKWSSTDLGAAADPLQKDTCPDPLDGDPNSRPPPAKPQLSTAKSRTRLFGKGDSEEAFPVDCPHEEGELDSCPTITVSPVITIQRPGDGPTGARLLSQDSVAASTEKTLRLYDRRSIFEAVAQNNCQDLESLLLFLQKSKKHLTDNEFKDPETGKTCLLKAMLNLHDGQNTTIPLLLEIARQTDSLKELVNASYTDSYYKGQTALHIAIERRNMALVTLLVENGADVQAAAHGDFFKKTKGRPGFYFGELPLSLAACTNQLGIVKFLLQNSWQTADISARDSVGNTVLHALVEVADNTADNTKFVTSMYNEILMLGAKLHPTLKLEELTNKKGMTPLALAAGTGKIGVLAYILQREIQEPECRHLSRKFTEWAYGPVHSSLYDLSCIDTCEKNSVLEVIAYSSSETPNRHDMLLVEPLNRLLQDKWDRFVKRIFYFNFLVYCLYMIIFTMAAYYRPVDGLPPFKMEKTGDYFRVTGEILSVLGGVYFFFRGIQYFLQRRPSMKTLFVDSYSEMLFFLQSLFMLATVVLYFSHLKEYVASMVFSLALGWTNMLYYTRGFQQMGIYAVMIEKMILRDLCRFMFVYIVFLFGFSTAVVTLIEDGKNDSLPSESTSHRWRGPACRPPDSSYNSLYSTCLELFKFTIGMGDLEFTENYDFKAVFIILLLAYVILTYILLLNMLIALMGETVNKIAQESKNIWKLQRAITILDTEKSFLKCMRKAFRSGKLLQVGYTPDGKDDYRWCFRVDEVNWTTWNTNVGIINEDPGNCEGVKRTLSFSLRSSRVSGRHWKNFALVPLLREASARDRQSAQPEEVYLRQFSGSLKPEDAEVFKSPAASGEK
# Hit rate of the full screen: of about 1,400 compounds, fewer than 10 were called active. Roughly 8% stayed inconclusive and do not appear here. Calls follow the shape of the dose curve; as a rule, active = well fitted curve in the direction sought with a large enough effect; inconclusive = small, poorly fitted or top-dose-only effect, or another doubt; inactive = no such curve, though single readings can be large or run the other way. The list shows a part of the results.
# Target: Transient receptor potential cation channel subfamily V member 1 (Homo sapiens) (UniProt Q8NER1)
# Assay: qHTS Assay for Compounds that Act as Potentiators of the Vanilloid Receptor 1: Hit Validation; also: % of control where 0% means no effect
# Conditions: TRPV1-expressing cells, Fluo-8 calcium influx, capsaicin EC20; series mostly up to 42.1 µM; activity change, positive = potentiation: at the top concentration
# Summary of the method: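 TRPV1 cells (2000/well, overnight 35.5 °C) loaded with Fluo-8 calcium dye 40–90 min at room temperature. FDSS fluorescence (ex 480/em 520 nm) read 3 min after compound, then 2 min after capsaicin at EC20.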
row,SMILES,"activity change, positive = potentiation"
1,O=C(c1ccc(-n2c(SCc3cccc(F)c3)nc3ccccc3c2=O)cc1)N1CCOCC1,inactive: -37.8%
2,CCc1nc(Nc2ccccc2)c2oc3ccccc3c2n1,inactive: -39.2%
3,CCCCc1nc(N2CCN(C(=O)c3ccco3)CC2)c(C#N)c2c1CCCC2,inactive: -38.4%
4,Cc1nc(N2CCCCC2)c2c(C)c(C(=O)Nc3ccccc3C(F)(F)F)sc2n1,inactive: -30.9%
5,O=C(O)c1ccc(NC(=O)c2ccccc2Br)c(NC(=O)c2ccccc2Br)c1,inactive: -9.56%
6,CC(C)(C)c1ccc2c(c1)OC(C(=O)N/N=C\c1ccncc1)CO2 (centres undefined),inactive: -38.1%
7,Cc1ccc(N2C(=O)C(CC(=O)Nc3cccc(F)c3)N(CCc3ccncc3)C2=O)cc1 (centres undefined),inactive: -6.35%
8,CC1(C)CC(NS(=O)(=O)c2ccc(Cl)cc2)CC(C)(C)N1,inactive: -14.3%
9,OCc1c(OCc2cccc(F)c2)ccc2ccccc12,inactive: -5.44%
10,COc1ccc(/C=C(\C#N)c2n[nH]c(Cn3cncn3)n2)cc1,inactive: -9.19%
11,CS(=O)(=O)N1N=C(c2cccs2)CC1c1ccc(Cl)o1 (centres undefined),inactive: 0.108%
12,CCOc1ccc(CNC(=O)CCSCc2ccccc2F)cc1OC,inactive: -38.4%
13,O=C(Nc1ccc(Cc2ccc(NC(=O)C3CC3)c(O)c2)cc1O)C1CC1,inactive: 11.9%
14,Cc1ccc2oc(C(=O)Nc3cc(C)on3)c(C)c2c1,inactive: 1.69%
15,Cc1ccc(C(=O)CSc2ccc(-c3cccnc3)nn2)cc1,inactive: -4.92%
16,CC(C)(C)c1ccc(C(=O)Nc2cccc([N+](=O)[O-])c2)cc1,inactive: -39.1%
17,O=C(c1ccc(C(F)(F)F)cc1)C1CCCN(C(=O)CCc2ccncc2)C1 (centres undefined),inactive: -31.3%
18,O=C(CCn1c(=S)[nH]c2ccccc2c1=O)NCCc1ccccc1,inactive: 0.76%
19,c1ccc2c(c1)ccc1nnc(SCc3ccc4c(c3)OCO4)n12,inactive: -6.53%
20,O=C(OCc1nnn(Cc2ccccc2)c1-c1c(COC(=O)c2ccccc2)nnn1Cc1ccccc1)c1ccccc1,inactive: 2.69%
21,Cc1ccc(Nc2nc(-c3cccnc3)nc3ccccc23)cc1,inactive: -38.9%
22,O=C(NCCN1CCOCC1)C1CCC(=O)N1Cc1ccccc1Cl (centres undefined),inactive: -1.67%

row,SMILES,"activity change, positive = potentiation"
1,COc1ccc(-n2nc(C(=O)NCC(=O)NCCCN3CCCCCC3)c3ccccc3c2=O)cc1Cl,inactive: -7.25%
2,CN1CCN(c2ccc(NC(=O)CN3CCOCC3)cc2F)CC1,inactive: -3.44%
3,COc1ccc(C2CC(c3cccs3)=NN2C(=S)Nc2ccccc2)cc1OC (centres undefined),inactive: 1.54%
4,COc1ccccc1CNC(=O)C1CCCN1S(=O)(=O)c1cccc2cccnc12 (centres undefined),inactive: 6.62%
5,COc1ccc(NC(=O)c2ccccc2NC(=O)c2ccccc2)cc1,inactive: 5.64%
6,CCCCNc1c(-c2cccc(-c3cc(C(C)=O)cs3)c2)nc2cc(C)ccn12,inactive: -38.5%
7,CNc1c(NS(=O)(=O)c2cc(OC)ccc2OC)c(=O)oc2ccccc12,inactive: 5.88%
8,Cc1ccc(-c2csc(N(C)C(=O)c3c(C)nn(-c4ccccc4)c3Cl)n2)cc1,inactive: -1.37%
9,O=C(N/N=C/c1ccc(Br)s1)c1ccccn1,inactive: -39%
10,O=C(CCSc1ccc(Cl)cc1)NCc1ccncc1,inactive: -38.8%
11,CCC(C)(C(=O)NC1CCCC1)N(C)C(=O)c1ccccn1 (centres undefined),inactive: -5.13%
12,O=C(CCC(=O)N1CCCC(Nc2ccccc2)C1)c1ccc(F)cc1 (centres undefined),inactive: -39.4%
13,C=CCOc1c(Br)cc(CNc2ccc3[nH]c(=O)[nH]c3c2)cc1OCC,inactive: -25.8%
14,Cc1ccc(NC(=O)CCSc2nnc(-c3ccco3)o2)cc1,inactive: 0.582%
15,O=C(Nc1ccc(C(=O)O)cc1)/C(=C\c1ccccc1)NC(=O)c1ccco1,inactive: -6.77%
16,COc1ccc(NC(=O)c2ccc(Br)c(S(=O)(=O)N3CCOCC3)c2)cc1,inactive: -24.8%
17,CCOCCCn1c(=S)[nH]c2cc(C(=O)N3CCC(C(N)=O)(N4CCCCC4)CC3)ccc2c1=O,inactive: -7.29%
18,CC(C)(C)c1ccc(C(=O)NNC(=O)C2CCCCC2)cc1,inactive: -33.1%
19,COc1cc(C2C(C#N)=C(N)N(c3cccnc3)C3=C2C(=O)CC(C)(C)C3)ccc1O (centres undefined),inactive: -0.886%
20,Fc1cccc(CCN2CCN=C2Nc2ccccc2)c1,inactive: 13.1%
21,COc1cc2[nH]c(C(=O)Nc3ccc(F)cc3)cc2c(OC)c1OC,inactive: -38.3%
22,COc1cccc(CN(C)c2nc(-c3cccs3)nc3ccccc23)c1,inactive: -5.99%

# No new results follow: 2 of the compounds above.
row,SMILES,"activity change, positive = potentiation"
13,C=CCOc1c(Br)cc(CNc2ccc3[nH]c(=O)[nH]c3c2)cc1OCC,inactive: -25.8%
14,Cc1ccc(NC(=O)CCSc2nnc(-c3ccco3)o2)cc1,inactive: 0.582%

# More entries:

row,SMILES,"activity change, positive = potentiation"
1,COc1cc2ccc3c(CCN(C)C)cc(OC)c(OC)c3c2cc1OC,inactive: -5.22%
2,CCC(=O)Nc1ccc(S(=O)(=O)NCCc2ccccc2)cc1,inactive: -8.71%
3,CCc1nnc(NC(=O)CSc2nnc(-c3ccc(S(=O)(=O)N4CCCC4)cc3)n2CC)s1,inactive: -1.37%
4,N#Cc1ccc(NC(=O)CCc2ccc(S(=O)(=O)N3CCOCC3)cc2)cc1,inactive: -32.7%
5,COc1ccc(NC(=O)CN2CCCCC2)cc1,inactive: -0.829%
6,O=C(c1ccco1)N1CCN(Cc2nc3ccccc3c(=O)n2-c2ccc(F)cc2)CC1,inactive: -10.1%
7,C/C(=N\Nc1ccc2nncn2n1)c1ccc(Br)s1,inactive: -31.2%
8,Cc1ccc(S(=O)(=O)N2CCN(C(=O)c3ccccc3)C2)cc1[N+](=O)[O-],inactive: -3.75%
9,COc1ccc(OC)c(CNC(=O)CCCn2ccc3cc(S(=O)(=O)N4CCCC4)ccc32)c1,inactive: -6.47%
10,COc1cc(CCC(O)CC(=O)CCc2ccccc2)ccc1O (centres undefined),inactive: -39.6%
11,COc1ccc2nc(N)sc2c1,inactive: -9.83%
12,Cc1ncc(CSc2nc3ccccc3[nH]2)c(N)n1,inactive: -5.57%
13,CC(=O)N(c1ccc(N(C(C)=O)S(=O)(=O)c2cccs2)cc1)S(=O)(=O)c1cccs1,inactive: -11.5%
14,Cc1ccc(-n2nc(C(=O)N3CCOCC3)cc2-c2ccc(Cl)cc2)cc1,inactive: -15.1%
15,COc1cc(OC)c(C2=NOC(C(=O)NCc3ccc4c(c3)OCO4)C2)cc1Cl (centres undefined),inactive: -4.8%
16,CC(C)CNC(=O)c1cccc(NC(=O)c2ccc3c(c2)C(=O)N(C)C3=O)c1,inactive: -7.15%
17,CCCCCC(=O)NC(NC(=S)N1CCOCC1)C(Cl)(Cl)Cl (centres undefined),inactive: -38.2%
18,Cc1c(Cl)c(-c2n[nH]c(=S)n2-c2ccc(F)cc2)nn1C,inactive: -7.45%
19,COc1ccc(NS(=O)(=O)c2ccc3[nH]c(=O)[nH]c3c2)cc1,inactive: 3.72%
20,Brc1ccc(OCCCOc2cccc3cccnc23)cc1,inactive: -25.9%
21,CC(=O)Nc1ccc(S(=O)(=O)NCCc2csc(C)n2)cc1,inactive: -4.87%
22,C=CCNc1nc2c(c(=O)n(C)c(=O)n2C)n1CCCCCC,inactive: -7.33%

row,SMILES,"activity change, positive = potentiation"
1,O=C(Nc1ccc(F)cc1)c1cc(Cl)sc1Cl,inactive: -13.9%
2,CCc1ccccc1NC(=O)CCC(=O)Nc1nnc(C(C)C)s1,inactive: 0.768%
3,CCn1c(SCC(=O)Nc2nc(C)cs2)nnc1C(C)NC(=O)c1ccccc1 (centres undefined),inactive: -6.95%
4,COc1cccc(/C=N/NC(=O)c2nc(-c3ccccc3)cc(-c3ccccc3)n2)c1O,inactive: -4.21%
5,Cc1cc(-c2nnc(SCC(=O)Nc3ccccc3C(F)(F)F)n2N)n[nH]1,inactive: -1.55%
6,COCCNC(=O)CCc1c(C)nc2c(c(C)nn2-c2ccc(C)cc2)c1C,inactive: -38.5%
7,Cc1cccc(-n2c(=O)[nH]c3c(C(N)=O)nc(CC(C)C)nc32)c1,inactive: 0.951%
8,CSCc1ccc(C(=O)N2CCCC(Nc3ccc4c(c3)OCCO4)C2)o1 (centres undefined),inactive: -35.3%
9,O=C(c1cc(COc2ccc(F)cc2Cl)on1)N1CCC(c2ccncc2)CC1,inactive: -38.4%
10,CC1(S(=O)(=O)O)CC(=O)c2ccccc2C1=O (centres undefined),inactive: -4.21%
11,CCOC(=O)/C=C1\CN(CCC(C)C)S(=O)(=O)c2ccccc21,inactive: -8.51%
12,Cc1nn(Cc2ccc(Cl)cc2)c(C)c1NC(=O)CCCn1nc(C)c([N+](=O)[O-])c1C,inactive: -16%
13,CC(=O)N1CCN(c2ccc(NC(=O)C(c3ccccc3)c3ccccc3)cc2)CC1,inactive: -5.18%
14,COc1ccc(C2=NCCn3nc4ccccc4c32)cc1,inactive: 5.29%
15,COc1cc(C)nc(-c2csc(C)n2)n1,inactive: 7.2%
16,O=C1Cc2cc([N+](=O)[O-])ccc2N1c1c(Cl)cccc1Cl,inactive: -2.88%
17,Cn1c(SCC(=O)Nc2cccc3ccccc23)nc(O)cc1=O,inactive: -1.99%
18,CCCNc1nc(=S)n(-c2ccccc2)c(C)c1C(C)=O,inactive: 35%
19,Cc1[nH]nc(SCC(=O)N2CCOCC2)c1[N+](=O)[O-],inactive: -5.31%
20,c1ccc(NC(c2ccccc2)c2ccncc2)cc1 (centres undefined),inactive: 4.64%
21,O=C(O)c1coc2ccccc12,inactive: -8.38%
22,CN(C)C=NC(=O)c1cc(C(=O)c2ccc(Cl)cc2)c[nH]1,inactive: -8.73%

row,SMILES,"activity change, positive = potentiation"
1,Cc1ccccc1N(CC(=O)NC1CCCCC1)C(=O)CNC(=O)c1cccs1,inactive: -3.74%
2,CCO[C@H]1OC(C(=O)NC2CC2)=C[C@@H](c2ccccc2)[C@@H]1CCCO,inactive: -2.83%
3,CCc1ccccc1NC(=O)CCC(=O)c1cccs1,inactive: 0.167%
4,OC(COc1ccc(OCC(O)CN2CCCCC2)cc1)CN1CCCCC1 (centres undefined),inactive: -2.3%
5,Cc1c(C(C)NC(=O)c2ccc3nc(Cc4ccccc4F)oc3c2)cnn1C (centres undefined),inactive: -6.76%
6,CCCCSCCCNC(=O)Nc1cccc(OC)c1,inactive: -21.8%
7,Cc1ccnc(SC2CC(=O)N(c3ccc(Br)cc3)C2=O)n1 (centres undefined),inactive: 2.52%
8,Cc1cc(Cl)ccc1NNC(=O)c1c(C)noc1C,inactive: -1.73%
9,O=S(=O)(c1ccc(Oc2ccc(S(=O)(=O)N(CCO)CCO)cc2)cc1)N(CCO)CCO,inactive: -5.71%
10,O=c1c2ccccc2[nH]c(=S)n1CCCN1CCN(c2ccccc2)CC1,inactive: 9.01%
11,O=C(N/N=C/c1c[nH]c2ccccc12)c1cc(-c2ccc3ccccc3c2)n[nH]1,inactive: -9.22%
12,COC(=O)CC1C(=O)NCCN1C(=O)Nc1ccc(Cl)c(Cl)c1 (centres undefined),inactive: -12.3%
13,Cc1cccn2c(CN3CCCN(C=O)CC3)c(C(=O)N(C)CCc3ccccc3)nc12,inactive: -2.2%
14,CN(C)CCCN(Cc1ccc2c(c1)OCO2)C(=O)NC1CCCCC1,inactive: -6.9%
15,CCNC(=O)COc1ccc(/C=C2\COc3ccccc3C2=O)cc1OC,inactive: -4.64%
16,O=C(NCc1ccc2c(c1)OCO2)c1c(Cl)cccc1Cl,inactive: 1.53%
17,COc1cc(/C=N\NC(=O)C2COc3ccccc3O2)cc(OC)c1O (centres undefined),inactive: -36.2%
18,COc1ccccc1C/C(N)=N/OC(=O)COc1cccc(C)c1C,inactive: -6.5%
19,CCCCCCC(=O)Nc1ccc(C(=O)N/N=C/c2cccnc2)cc1,inactive: -39.2%
20,CC(C)c1ccc(NC(=O)N2CCOCC2)cc1,inactive: -39%
21,COc1ccc(NC(=O)C2CCCN(c3nccc(C)n3)C2)cc1 (centres undefined),inactive: -4.95%

# 2 records picked at random from those above, as already listed:
row,SMILES,"activity change, positive = potentiation"
12,COC(=O)CC1C(=O)NCCN1C(=O)Nc1ccc(Cl)c(Cl)c1 (centres undefined),inactive: -12.3%
14,CN(C)CCCN(Cc1ccc2c(c1)OCO2)C(=O)NC1CCCCC1,inactive: -6.9%
